From patent US20260294769A1, “ASCORBIC ACID DERIVATIVES AND COSMETIC THEREOF” (SEIWA KASEI COMPANY, LIMITED, priority 2023, published 2026)
For at least one compound, name, drawing or mass did not settle the structure.

What was measured:
[1] = Stability Test-1: odor of 1% aqueous solutions adjusted to pH 7 stored at 50° C.; assay type: physicochemical; details: 1% aqueous solution pH 7, 50° C., 10 panelists
Method: (§1) For each of the samples of Synthesis Examples 1 to 6, 1% aqueous solutions were adjusted to pH 3, 5, 7, 8, and 9 with a dilute potassium hydroxide aqueous solution, and then placed in 50 mL screw tubes and sealed. […] Furthermore, the odor and coloration of the samples adjusted to pH 7 were evaluated based on the following methods and criteria, and the results are shown in Table 11.
• Evaluation was made by 10 panelists according to the following criteria. • 3: Almost odorless. • 2: There is a slight strange odor. • 1: A strong odor is detected. • Based on the results of the above evaluation, the following classification was made: • ◯: Total score of 10 panelists is 25 or more • Δ: Total score of 10 panelists is 16-24 • x: The total score of 10 panelists is 15 or less

[2] = Stability Test-1: coloration of 1% aqueous solutions adjusted to pH 7 stored at 50° C.; assay type: physicochemical; details: 1% aqueous solution pH 7, 50° C., 10 panelists
Method: as §1
• Evaluation was made by 10 panelists according to the following criteria. • 3: Almost no change compared to immediately after preparation. • 2: Color changes compared to immediately after preparation. • 1: Strongly colored compared to immediately after preparation. • Based on the results of the above evaluation, the following classification was made: […]

With `O=C1O[C@H]([C@@H](O)CO)C(OCC(O)CO)=C1OCC(O)CO` (stereo partly shown) [Bisglyceryl ascorbic acid, reference compound] the Odor ([1]; after 2 weeks) was “Δ (Total score of 10 panelists is 16-24)”, the Odor ([1]; after 4 weeks) was “Δ (Total score of 10 panelists is 16-24)” and the Coloration ([2]; after 2 weeks) was “Δ (Total score of 10 panelists is 16-24)”. For the same compound, the Coloration ([2]; after 4 weeks) was “Δ (Total score of 10 panelists is 16-24)”.
